This passage reports binding results from paper PMC12210014.

The chains behind the UniProt entries cited, without tags or fusion partners.
UniProt A0ACM8QJT5: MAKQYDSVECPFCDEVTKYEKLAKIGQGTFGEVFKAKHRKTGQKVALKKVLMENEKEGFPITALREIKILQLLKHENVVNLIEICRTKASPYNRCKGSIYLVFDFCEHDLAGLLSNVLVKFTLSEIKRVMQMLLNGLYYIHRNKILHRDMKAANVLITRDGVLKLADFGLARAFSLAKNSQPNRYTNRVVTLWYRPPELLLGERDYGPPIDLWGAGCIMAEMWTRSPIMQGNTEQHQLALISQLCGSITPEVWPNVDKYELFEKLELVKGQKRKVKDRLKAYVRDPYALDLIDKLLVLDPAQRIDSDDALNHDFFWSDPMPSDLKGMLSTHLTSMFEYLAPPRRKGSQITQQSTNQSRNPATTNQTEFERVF

No constants are given. Whether binding was seen depends on the method and setting. Binding seen in cells or lysates may run through a third protein. These calls come from enrichment with a bait or labelling near it, and not all partners need be listed. Tags and fused reporters may be left off the sequences shown.

This assay deals with T1, HA-tagged FKBPL (pig) (UniProt A5A8W3).
T1 sequence: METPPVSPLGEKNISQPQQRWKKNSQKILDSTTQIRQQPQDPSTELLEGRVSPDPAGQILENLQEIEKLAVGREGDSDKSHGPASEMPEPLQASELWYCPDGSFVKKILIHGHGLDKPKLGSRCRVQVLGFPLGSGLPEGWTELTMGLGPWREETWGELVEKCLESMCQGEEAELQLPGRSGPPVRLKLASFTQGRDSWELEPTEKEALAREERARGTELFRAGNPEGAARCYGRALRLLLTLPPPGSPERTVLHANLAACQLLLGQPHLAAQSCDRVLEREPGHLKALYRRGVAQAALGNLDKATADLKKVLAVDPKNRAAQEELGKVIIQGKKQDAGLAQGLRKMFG
The assay can be described thus: affinity purification with mass spectrometry; IP with anti-HA antibody from 2472 pig 8-cell embryos injected with HA-FKBPL mRNA; IgG as control; two specific silver-stained bands analysed by mass spectrometry.

With CDK9 (from UniProt A0ACM8QJT5 1-372), the binding entry is “binds”.

With HSP90AA1 (from UniProt O02705 1-733), the binding result is reported as “binds”.
